Library screen at single concentrations

Protein sequences, listed by entry. Tags and fused reporters are not part of them.
UniProt P9WFT3, whole entry: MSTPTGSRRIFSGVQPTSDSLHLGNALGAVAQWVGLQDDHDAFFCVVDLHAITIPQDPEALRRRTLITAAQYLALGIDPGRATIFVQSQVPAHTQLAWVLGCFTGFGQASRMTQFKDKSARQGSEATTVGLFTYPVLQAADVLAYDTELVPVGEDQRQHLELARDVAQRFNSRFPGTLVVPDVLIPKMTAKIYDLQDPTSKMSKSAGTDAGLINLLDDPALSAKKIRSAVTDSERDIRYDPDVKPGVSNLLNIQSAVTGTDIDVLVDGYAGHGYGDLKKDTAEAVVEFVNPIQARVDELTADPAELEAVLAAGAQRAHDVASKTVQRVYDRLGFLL
UniProt I6X8D2, whole entry: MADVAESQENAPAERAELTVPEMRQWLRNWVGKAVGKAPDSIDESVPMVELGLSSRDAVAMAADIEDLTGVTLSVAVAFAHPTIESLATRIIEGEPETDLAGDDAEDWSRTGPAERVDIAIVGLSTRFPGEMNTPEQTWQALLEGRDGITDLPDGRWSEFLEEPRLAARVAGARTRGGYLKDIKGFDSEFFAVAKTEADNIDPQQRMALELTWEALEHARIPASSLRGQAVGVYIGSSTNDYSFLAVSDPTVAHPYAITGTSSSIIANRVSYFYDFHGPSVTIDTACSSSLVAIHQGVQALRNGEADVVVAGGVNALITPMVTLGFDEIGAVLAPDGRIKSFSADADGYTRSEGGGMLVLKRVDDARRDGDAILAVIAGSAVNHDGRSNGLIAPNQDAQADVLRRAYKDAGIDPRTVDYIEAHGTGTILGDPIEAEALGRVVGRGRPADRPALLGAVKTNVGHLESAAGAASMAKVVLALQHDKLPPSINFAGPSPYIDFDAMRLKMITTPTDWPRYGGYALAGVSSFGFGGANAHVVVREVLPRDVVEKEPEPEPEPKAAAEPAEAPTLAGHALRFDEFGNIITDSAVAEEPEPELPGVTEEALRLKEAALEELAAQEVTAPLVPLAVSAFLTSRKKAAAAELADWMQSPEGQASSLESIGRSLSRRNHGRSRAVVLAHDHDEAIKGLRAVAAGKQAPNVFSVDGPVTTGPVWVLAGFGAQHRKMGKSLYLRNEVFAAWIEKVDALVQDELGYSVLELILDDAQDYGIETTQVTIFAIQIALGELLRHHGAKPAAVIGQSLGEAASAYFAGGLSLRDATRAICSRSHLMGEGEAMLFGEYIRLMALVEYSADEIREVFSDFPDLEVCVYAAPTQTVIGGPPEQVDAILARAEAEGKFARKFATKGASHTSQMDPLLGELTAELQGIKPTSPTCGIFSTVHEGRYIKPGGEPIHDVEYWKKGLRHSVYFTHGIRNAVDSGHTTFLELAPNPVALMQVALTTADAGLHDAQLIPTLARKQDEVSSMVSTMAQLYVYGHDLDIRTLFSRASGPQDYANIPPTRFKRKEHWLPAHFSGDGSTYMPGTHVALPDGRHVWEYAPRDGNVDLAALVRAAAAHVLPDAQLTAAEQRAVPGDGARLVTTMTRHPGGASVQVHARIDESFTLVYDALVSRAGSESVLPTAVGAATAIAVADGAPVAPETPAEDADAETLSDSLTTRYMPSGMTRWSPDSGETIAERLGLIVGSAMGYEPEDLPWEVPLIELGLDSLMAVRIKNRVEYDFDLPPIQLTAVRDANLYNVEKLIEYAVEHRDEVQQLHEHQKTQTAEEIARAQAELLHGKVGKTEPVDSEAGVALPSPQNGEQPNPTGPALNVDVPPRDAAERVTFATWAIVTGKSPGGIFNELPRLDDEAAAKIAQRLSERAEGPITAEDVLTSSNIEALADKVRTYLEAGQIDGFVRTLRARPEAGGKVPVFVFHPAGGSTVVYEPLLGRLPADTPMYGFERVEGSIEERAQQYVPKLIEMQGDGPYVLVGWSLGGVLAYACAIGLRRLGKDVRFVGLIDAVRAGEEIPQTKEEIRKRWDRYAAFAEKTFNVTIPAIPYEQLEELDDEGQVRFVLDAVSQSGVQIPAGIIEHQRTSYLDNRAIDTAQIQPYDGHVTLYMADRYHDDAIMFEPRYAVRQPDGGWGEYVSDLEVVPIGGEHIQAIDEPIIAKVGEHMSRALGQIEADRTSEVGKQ
UniProt P9WNZ1, whole entry: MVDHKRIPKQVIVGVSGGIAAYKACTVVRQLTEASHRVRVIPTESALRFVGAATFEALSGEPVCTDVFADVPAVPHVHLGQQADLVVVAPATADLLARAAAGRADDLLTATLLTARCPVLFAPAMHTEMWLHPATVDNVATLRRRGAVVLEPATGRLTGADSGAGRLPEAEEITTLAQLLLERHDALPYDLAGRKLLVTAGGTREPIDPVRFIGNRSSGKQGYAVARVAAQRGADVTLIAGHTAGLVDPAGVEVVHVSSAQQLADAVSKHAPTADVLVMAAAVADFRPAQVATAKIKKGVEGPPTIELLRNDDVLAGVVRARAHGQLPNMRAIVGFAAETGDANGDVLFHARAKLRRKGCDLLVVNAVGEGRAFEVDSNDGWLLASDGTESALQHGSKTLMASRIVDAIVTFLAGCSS

Measurements from “University of Dundee, Small-Polar-MMV Screening Library” (2021), ChEMBL document CHEMBL3988442.

The filed quantity is “Percent Effect” (%).
How 0% and 100% were set is not recorded. Most values in the screen are low, and negative values occur.
The compounds are a random part of those screened.

A: 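Enzyme assay of tryptophanyl-tRNA synthetase; the read-out is not stated. Target: Tryptophan-tRNA ligase, Mycobacterium tuberculosis (UniProt P9WFT3). Concentration: 10 µM. Direction is not recorded; retested compounds ran higher, which suggests that high means inhibition. About 65,000 compounds were tested under these conditions; 0.098% (about 64) showed 50% or more at least once.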
B: 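Polyketide synthase Pks13, Mycobacterium tuberculosis (UniProt I6X8D2). Enzyme assay of the thioesterase domain of polyketide synthase 13; the read-out is not stated. Compounds at 30 µM. The record gives no direction; the compounds picked for IC50 retests had high values, so higher reads as stronger inhibition. Size under these conditions: about 67,000 compounds, about 300 of them at 50% or above in at least one test.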
C: 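Coenzyme A biosynthesis protein CoaBC, Mycobacterium tuberculosis (UniProt P9WNZ1). Enzyme assay of CoaBC with a phosphate dye (Biomol Green) read at 650 nm. Compounds at 30 µM. Direction is inferred from only a few compounds that gave an IC50; most scored high, so higher reads as stronger inhibition. Most strong results did not repeat in a second test. About 67,000 compounds were tested under these conditions; 0.06% (about 40) showed 50% or more at least once.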

With O=C1N[C@H]2OCCC[C@H]2[C@H](c2ccccc2C(=O)O)N1 the screen gave A: 1.562%; B: 1.524%; C: 0.4785%. COCCn1cnnc1C1CCCN(c2cnccn2)C1 (stereo unspecified) read A: -3.304%; B: 10.14%; C: -4.136%. With CCc1cc(O)nc(C2CCCN2C(=O)COC)n1 (stereo unspecified) the screen gave B: 17.78%; C: -22.76%. Fc1ccc(CNCc2nnc3n2CC(C(F)(F)F)CC3)c(F)c1 (stereo unspecified) gave A: 1.242%; B: -4.514%; C: 5.089%. With Cc1ccc(CN(Cc2ccccn2)C2CC(C)(C)NC(C)(C)C2)s1 the screen gave A: 0.5853%; B: -44.49%; C: 4.167%. With CCC1CCCCN1Cc1nc2c(cnn2C)c(=O)[nH]1 (stereo unspecified) the screen gave A: 9.611%; B: -15.78%; C: 3.193%. Result for Cc1ccc(C)n1-c1ccsc1C(=O)NCC(=O)N1CCCC1 was A: -4.2%; B: -14.59%; C: -0.1988%.

With Cc1cc(C(=O)N2CCN(Cn3cc(Cl)cn3)CC2)c(C)o1 the screen gave A: -0.343%; B: 6.825%; C: -4.202%. With CCCN(Cc1cccnc1)Cc1ccc(C2CCCCO2)o1 (stereo unspecified) the screen gave A: 3.339%; B: -31.33%; C: 7.692%. With O=C(NCCSCc1ccco1)c1ccc(N2CCOCC2)cc1 the screen gave A: -3.541%; B: -7.656%; C: -9.198%. For CN1CCC(c2nccnc2Nc2cnccn2)CC1 the result was A: -1.427%; B: 18.28%; C: 0.4751%. For O=C(N[C@@H]1CCN(c2nccc3ccccc23)C[C@H]1O)c1cnccn1 the result was A: 2.673%; B: -9.212%; C: 10.71%. COc1ncccc1CN1Cc2nccn2CC(Cn2cccn2)C1 (stereo unspecified) gave B: -12.6%; C: -0.9901%. CCCn1ncc(C(=O)NC2CCN(CC3CCCO3)CC2)c1C (stereo unspecified) gave A: 3.673%; B: -22.62%; C: 5.683%.

O=C(CSC1=NS(=O)(=O)c2cc(F)ccc2N1)Nc1cccc(Cl)c1 read A: -0.1103%; B: -7.855%; C: 2.155%. With O=C(c1cccnc1N1CCCCC1)N1CCCC(n2ccnc2)C1 (stereo unspecified) the screen gave A: -3.744%; B: -39.98%; C: 3.325%. Result for COc1ccccc1OC1(C(=O)O)CCN(c2cnccn2)CC1 was A: 1.806%; B: 9.337%; C: 3.659%. For CC1CCCN(Cc2ccc(CNC(=O)NCc3ccncc3)cc2)C1 (stereo unspecified) the result was A: -2.577%; B: -4.646%; C: 3.532%. Result for CC(C)c1ccc(CCC(=O)N(C)C2CCN(C)C2=O)cc1 (stereo unspecified) was A: -2.385%; B: -9.894%; C: 0.7335%. O=S1(=O)N(c2ccccc2)C[C@H](O)[C@]12CCNC2 read C: 4.785%. Cc1cnn(CCC(=O)Nc2cccnc2N2CCC(CO)CC2)c1 read A: -1.87%; B: -12.94%; C: 2.784%.

For CC(C)n1ccnc1CN1CCCN(C(=O)CC2CCCO2)CC1 (stereo unspecified) the result was A: 15.46%; B: -18.32%; C: 3.181%. With CC(O)CN1CCC(=O)N(Cc2ccccc2)Cc2ccccc21 (stereo unspecified) the screen gave B: -37.43%; C: -8.475%. With Clc1ccc(OCCNC2(c3ccc(Br)cc3)CCOCC2)cc1 the screen gave A: -0.8922%; B: 11.11%; C: 10.91%. Result for O=S(=O)(NCc1ccccc1Cn1cncn1)N1CCCCC1 was A: 0.5206%; B: -13.47%; C: -2.112%. Cn1nnnc1SCCNC(=O)C1CCN(C(=O)C2CC2)CC1 gave A: 2.379%; B: 2.057%; C: -0.9091%. COCc1nc(C(=O)NS(=O)(=O)c2ccc(OC)c(C)c2)cs1 gave A: -3.665%; B: -13.96%; C: 0.9901%. Result for CN(C(=O)Nc1cccnc1)C1CCN(c2ccc(Cl)cc2)CC1 was A: -2.065%; B: 7.351%; C: 4.04%.

CC(=O)N1CCC(N[C@@H]2CO[C@H](CNC(=O)C3CCCC3)[C@H]2O)CC1 gave A: -3.566%; B: -27.04%; C: 3.311%. With CN(C)CCN1CCN(CC2CC2)c2ncccc2C1 the screen gave A: -11.16%; B: -11.12%; C: -5.185%. Result for COCc1cccc(CNCc2c(C)nn(C)c2N2CCOCC2)c1 was A: -8.652%; B: -7.726%; C: 6.005%. CN(C)c1nc(NCc2ccccc2Cn2cccn2)ncc1F gave A: 0.2329%; B: -25.19%; C: 1.978%. Result for Cn1cc(C2CC3(CCN(C(=O)c4ccsc4)CC3)NC2=O)cn1 (stereo unspecified) was A: -4.064%; B: -33.57%; C: -8.211%. With COCC(=O)N1CCC(c2cc(C(F)(F)F)c3c(C)noc3n2)CC1 the screen gave B: -8.581%; C: -1.115%. Result for CN(Cc1ccco1)C1COC2(CCN(Cc3nccs3)CC2)C1 (stereo unspecified) was A: -7.004%; B: -8.775%; C: 0.1233%.

For Cc1nc(-c2ccc(S(=O)(=O)N3CCOCC3)cc2)co1 the result was A: 0.1555%; B: -5.051%; C: 2.785%. For Cc1cnc(CNCc2cnc(-c3ccccc3C)s2)cn1 the result was A: -5.178%; B: -2.027%; C: 0.2141%. For O=C(CN1CCCC1c1noc(C2CC2)n1)NCCc1ccsc1 (stereo unspecified) the result was A: -3.129%; B: -11.33%; C: 2.296%. O=C(O)c1ccc(N2CCC(Oc3ccc(Cl)cc3)CC2)nc1 read A: 1.459%; B: 5.491%; C: -1.985%.